Measured values published in publication PMC3795256.
These are yes or no findings as the source states them, for the method shown. Binding seen in cells or lysates may run through a third protein. Some entries that bind do so weakly or less than the wild type. For some of these results: Sequences can lack the tags named with a protein.

What was measured:
[1] = target: T1, Ero1α-FLAG (ER oxidoreductin-1 α, wild type) (human) (UniProt Q96HE7); assay: co-IP; HeLa cells transfected with Prx4-FLAG or Ero1α-FLAG, with or without 0.25 μM dithiobis succinimidyl propionate (DSP) on ice; anti-FLAG immunoprecipitates eluted by FLAG peptides, Western blot
T1 sequence: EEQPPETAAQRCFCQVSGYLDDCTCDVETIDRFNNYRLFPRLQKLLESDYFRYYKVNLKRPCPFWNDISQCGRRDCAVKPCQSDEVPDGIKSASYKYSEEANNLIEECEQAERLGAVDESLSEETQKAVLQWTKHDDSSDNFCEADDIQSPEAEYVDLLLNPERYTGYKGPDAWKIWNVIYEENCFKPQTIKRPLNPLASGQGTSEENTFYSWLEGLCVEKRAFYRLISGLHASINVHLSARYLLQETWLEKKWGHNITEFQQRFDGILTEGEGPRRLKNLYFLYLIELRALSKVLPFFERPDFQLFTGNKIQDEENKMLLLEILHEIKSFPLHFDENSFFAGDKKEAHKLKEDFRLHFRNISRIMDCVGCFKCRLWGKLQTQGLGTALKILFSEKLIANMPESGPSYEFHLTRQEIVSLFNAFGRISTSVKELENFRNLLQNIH

[2] = target: Prx4-FLAG (peroxiredoxin 4) (human) (UniProt Q13162); assay: as above
[3] = target: T2, endogenous ERp44 (mouse myeloma cells) (mouse (endogenous in J558L myeloma cells)) (UniProt Q9D1Q6); assay: co-IP; lysates of mouse myeloma J558L cells or J[μs] transfectants immunoprecipitated with anti-ERp44, Western blot; endogenous proteins
T2 sequence: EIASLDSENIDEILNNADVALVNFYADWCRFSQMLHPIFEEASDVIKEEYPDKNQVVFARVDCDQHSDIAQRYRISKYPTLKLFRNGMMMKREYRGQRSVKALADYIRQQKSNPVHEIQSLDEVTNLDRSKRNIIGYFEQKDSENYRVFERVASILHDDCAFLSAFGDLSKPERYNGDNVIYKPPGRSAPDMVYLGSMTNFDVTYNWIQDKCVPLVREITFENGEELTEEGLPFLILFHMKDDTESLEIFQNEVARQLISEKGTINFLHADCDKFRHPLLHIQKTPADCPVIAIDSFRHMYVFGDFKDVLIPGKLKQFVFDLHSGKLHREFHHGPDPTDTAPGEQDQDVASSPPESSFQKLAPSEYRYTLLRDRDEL

[4] = target: T3, Prx4-FLAG (peroxiredoxin 4) (human), Q13162; assay: co-IP; HeLa cells transfected with Prx4-FLAG or Ero1α-FLAG, with or without 0.25 μM dithiobis succinimidyl propionate (DSP) on ice; anti-FLAG immunoprecipitates eluted by FLAG peptides, Western blot; details: remark: other sources report otherwise
T3 chain: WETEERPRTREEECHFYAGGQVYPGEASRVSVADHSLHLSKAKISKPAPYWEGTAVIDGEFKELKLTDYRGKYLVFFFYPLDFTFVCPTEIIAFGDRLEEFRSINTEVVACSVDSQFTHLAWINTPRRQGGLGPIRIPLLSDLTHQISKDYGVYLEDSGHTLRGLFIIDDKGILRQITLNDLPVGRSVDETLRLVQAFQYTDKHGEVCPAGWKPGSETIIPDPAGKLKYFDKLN

B1: ERp44 (protein, UniProt Q9BS26 30-406)
chain: EITSLDTENIDEILNNADVALVNFYADWCRFSQMLHPIFEEASDVIKEEFPNENQVVFARVDCDQHSDIAQRYRISKYPTLKLFRNGMMMKREYRGQRSVKALADYIRQQKSDPIQEIRDLAEITTLDRSKRNIIGYFEQKDSDNYRVFERVANILHDDCAFLSAFGDVSKPERYSGDNIIYKPPGHSAPDMVYLGAMTNFDVTYNWIQDKCVPLVREITFENGEELTEEGLPFLILFHMKEDTESLEIFQNEVARQLISEKGTINFLHADCDKFRHPLLHIQKTPADCPVIAIDSFRHMYVFGDFKDVLIPGKLKQFVFDLHSGKLHREFHHGPDPTDTAPGEQAQDVASSPPESSFQKLAPSEYRYTLLRDRDEL
With B1 the binding [1] was “binds” and the binding [2] was “binds”.

B2: ERp72 (protein, UniProt P13667 21-645)
chain: VAGAEGPDEDSSNRENAIEDEEEEEEEDDDEEEDDLEVKEENGVLVLNDANFDNFVADKDTVLLEFYAPWCGHCKQFAPEYEKIANILKDKDPPIPVAKIDATSASVLASRFDVSGYPTIKILKKGQAVDYEGSRTQEEIVAKVREVSQPDWTPPPEVTLVLTKENFDEVVNDADIILVEFYAPWCGHCKKLAPEYEKAAKELSKRSPPIPLAKVDATAETDLAKRFDVSGYPTLKIFRKGRPYDYNGPREKYGIVDYMIEQSGPPSKEILTLKQVQEFLKDGDDVIIIGVFKGESDPAYQQYQDAANNLREDYKFHHTFSTEIAKFLKVSQGQLVVMQPEKFQSKYEPRSHMMDVQGSTQDSAIKDFVLKYALPLVGHRKVSNDAKRYTRRPLVVVYYSVDFSFDYRAATQFWRSKVLEVAKDFPEYTFAIADEEDYAGEVKDLGLSESGEDVNAAILDESGKKFAMEPEEFDSDTLREFVTAFKKGKLKPVIKSQPVPKNNKGPVKVVVGKTFDSIVMDPKKDVLIEFYAPWCGHCKQLEPVYNSLAKKYKGQKGLVIAKMDATANDVPSDRYKVEGFPTIYFAPSGDKKNPVKFEGGDRDLEHLSKFIEEHATKLSRTKEEL
B2 was tested, and the binding [1] was “binds”.

B3: P5 (protein, UniProt Q15084 20-440)
chain: LYSSSDDVIELTPSNFNREVIQSDSLWLVEFYAPWCGHCQRLTPEWKKAATALKDVVKVGAVDADKHHSLGGQYGVQGFPTIKIFGSNKNRPEDYQGGRTGEAIVDAALSALRQLVKDRLGGRSGGYSSGKQGRSDSSSKKDVIELTDDSFDKNVLDSEDVWMVEFYAPWCGHCKNLEPEWAAAASEVKEQTKGKVKLAAVDATVNQVLASRYGIRGFPTIKIFQKGESPVDYDGGRTRSDIVSRALDLFSDNAPPPELLEIINEDIAKRTCEEHQLCVVAVLPHILDTGAAGRNSYLEVLLKLADKYKKKMWGWLWTEAGAQSELETALGIGGFGYPAMAAINARKMKFALLKGSFSEQGINEFLRELSFGRGSTAPVGGGAFPTIVEREPWDGRDGELPVEDDIDLSDVELDDLGKDEL
In the case of B3, the binding [1] is reported as “binds” and the binding [2] is reported as “binds”.

B4: endogenous Prx4 (mouse myeloma cells) (protein, UniProt O08807 41-274)
chain: LESDERFRTRENECHFYAGGQVYPGEASRVSVADHSLHLSKAKISKPAPYWEGTAVINGEFKELKLTDYRGKYLVFFFYPLDFTFVCPTEIIAFGDRIEEFKSINTEVVACSVDSQFTHLAWINTPRRQGGLGPIRIPLLSDLNHQISKDYGVYLEDSGHTLRGLFIIDDKGVLRQITLNDLPVGRSVDETLRLVQAFQYTDKHGEVCPAGWKPGSETIIPDPAGKLKYFDKLN
B4 was tested, and the binding [3] was “binds”.

B5: ERp72, P13667 21-645 (protein)
chain: VAGAEGPDEDSSNRENAIEDEEEEEEEDDDEEEDDLEVKEENGVLVLNDANFDNFVADKDTVLLEFYAPWCGHCKQFAPEYEKIANILKDKDPPIPVAKIDATSASVLASRFDVSGYPTIKILKKGQAVDYEGSRTQEEIVAKVREVSQPDWTPPPEVTLVLTKENFDEVVNDADIILVEFYAPWCGHCKKLAPEYEKAAKELSKRSPPIPLAKVDATAETDLAKRFDVSGYPTLKIFRKGRPYDYNGPREKYGIVDYMIEQSGPPSKEILTLKQVQEFLKDGDDVIIIGVFKGESDPAYQQYQDAANNLREDYKFHHTFSTEIAKFLKVSQGQLVVMQPEKFQSKYEPRSHMMDVQGSTQDSAIKDFVLKYALPLVGHRKVSNDAKRYTRRPLVVVYYSVDFSFDYRAATQFWRSKVLEVAKDFPEYTFAIADEEDYAGEVKDLGLSESGEDVNAAILDESGKKFAMEPEEFDSDTLREFVTAFKKGKLKPVIKSQPVPKNNKGPVKVVVGKTFDSIVMDPKKDVLIEFYAPWCGHCKQLEPVYNSLAKKYKGQKGLVIAKMDATANDVPSDRYKVEGFPTIYFAPSGDKKNPVKFEGGDRDLEHLSKFIEEHATKLSRTKEEL
For B5, the binding [4] was “binds”.
